Data from article PMC5461494.
Numbering of substitutions follows the chain as printed. Numbers in names are those of the source. Results are given in words; binding and its absence hold for the method and conditions named. Binding seen in cells or lysates may run through a third protein. For part of these data: A result given as binding can be weak or reduced; the word gives no strength. For part of these data: Where a sequence is shown, tags or fusion partners need not be part of it.

The chains behind the UniProt entries cited, without tags or fusion partners. Where a name states a change or a piece, a line headed by the entry shows the natural chain unless it says otherwise.
UniProt Q14676: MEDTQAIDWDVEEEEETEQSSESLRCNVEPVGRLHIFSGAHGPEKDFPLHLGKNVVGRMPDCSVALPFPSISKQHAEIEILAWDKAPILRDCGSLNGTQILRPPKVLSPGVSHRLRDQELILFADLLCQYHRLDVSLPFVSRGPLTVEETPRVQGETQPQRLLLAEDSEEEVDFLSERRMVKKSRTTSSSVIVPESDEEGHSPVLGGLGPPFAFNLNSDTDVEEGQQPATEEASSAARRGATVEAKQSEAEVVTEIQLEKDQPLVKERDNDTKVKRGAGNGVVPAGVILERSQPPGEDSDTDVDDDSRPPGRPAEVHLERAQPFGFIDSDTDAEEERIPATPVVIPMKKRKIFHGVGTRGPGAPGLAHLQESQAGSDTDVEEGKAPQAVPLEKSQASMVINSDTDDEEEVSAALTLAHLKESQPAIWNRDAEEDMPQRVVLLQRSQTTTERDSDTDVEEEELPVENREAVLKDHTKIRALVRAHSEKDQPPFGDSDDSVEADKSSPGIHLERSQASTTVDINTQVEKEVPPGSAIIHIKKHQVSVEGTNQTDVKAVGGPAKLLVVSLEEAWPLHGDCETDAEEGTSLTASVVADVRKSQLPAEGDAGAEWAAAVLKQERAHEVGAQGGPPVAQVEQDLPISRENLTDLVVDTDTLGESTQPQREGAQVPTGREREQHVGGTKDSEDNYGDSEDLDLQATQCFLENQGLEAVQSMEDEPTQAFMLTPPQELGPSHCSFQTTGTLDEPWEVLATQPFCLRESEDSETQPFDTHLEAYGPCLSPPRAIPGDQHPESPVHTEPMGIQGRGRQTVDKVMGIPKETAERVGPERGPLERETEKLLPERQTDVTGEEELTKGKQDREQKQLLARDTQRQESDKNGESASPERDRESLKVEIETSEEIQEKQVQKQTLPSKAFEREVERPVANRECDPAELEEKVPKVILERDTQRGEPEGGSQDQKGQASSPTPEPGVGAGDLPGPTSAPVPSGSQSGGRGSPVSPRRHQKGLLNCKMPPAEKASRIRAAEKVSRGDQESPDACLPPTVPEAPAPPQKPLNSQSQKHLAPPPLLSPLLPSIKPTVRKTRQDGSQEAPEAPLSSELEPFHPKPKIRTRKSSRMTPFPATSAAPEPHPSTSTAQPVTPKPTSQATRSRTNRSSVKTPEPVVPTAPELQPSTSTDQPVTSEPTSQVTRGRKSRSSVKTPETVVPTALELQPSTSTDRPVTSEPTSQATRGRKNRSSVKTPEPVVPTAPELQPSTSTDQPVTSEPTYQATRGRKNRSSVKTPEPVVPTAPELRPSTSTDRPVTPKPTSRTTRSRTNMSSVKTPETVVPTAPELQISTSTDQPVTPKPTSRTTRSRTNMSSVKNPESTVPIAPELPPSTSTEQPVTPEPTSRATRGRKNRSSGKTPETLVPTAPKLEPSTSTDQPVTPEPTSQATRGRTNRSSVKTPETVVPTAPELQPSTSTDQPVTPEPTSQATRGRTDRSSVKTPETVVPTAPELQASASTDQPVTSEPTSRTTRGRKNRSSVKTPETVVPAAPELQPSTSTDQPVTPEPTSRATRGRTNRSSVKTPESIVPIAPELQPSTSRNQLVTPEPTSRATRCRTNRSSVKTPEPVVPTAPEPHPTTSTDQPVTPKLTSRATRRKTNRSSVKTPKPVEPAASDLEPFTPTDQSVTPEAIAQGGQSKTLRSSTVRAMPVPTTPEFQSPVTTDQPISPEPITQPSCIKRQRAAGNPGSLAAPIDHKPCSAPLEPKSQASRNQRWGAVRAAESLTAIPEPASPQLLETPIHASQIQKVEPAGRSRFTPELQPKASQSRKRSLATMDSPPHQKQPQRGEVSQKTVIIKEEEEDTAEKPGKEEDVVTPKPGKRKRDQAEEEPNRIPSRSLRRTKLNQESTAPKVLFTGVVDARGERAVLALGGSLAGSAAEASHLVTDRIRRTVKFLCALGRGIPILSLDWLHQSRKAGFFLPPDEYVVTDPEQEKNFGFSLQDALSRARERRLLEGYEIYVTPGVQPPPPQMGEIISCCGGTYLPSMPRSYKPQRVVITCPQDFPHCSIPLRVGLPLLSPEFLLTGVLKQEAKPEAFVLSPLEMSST

Columns and labels:
GST-MDC1-FHA domain = GST-MDC1-FHA domain (UniProt Q14676); test: pull-down; GST or GST-MDC1-FHA domain coupled to Sepharose, incubated with lysates of cisplatin-treated HEK293T cells transfected with WT or T196A USP13; only the target purified
[1] = molecular target: HA-MDC1 with the FHA domain deleted (UniProt Q14676); test: co-IP; HEK293T cells transfected with HA-MDC1 or its deletion mutants, untreated or treated with cisplatin; immunoprecipitation with HA antibody

B1: WT USP13 (HA-FLAG-USP13) (enzyme, UniProt Q92995 1-863)
chain: MQRRGALFGMPGGSGGRKMAAGDIGELLVPHMPTIRVPRSGDRVYKNECAFSYDSPNSEGGLYVCMNTFLAFGREHVERHFRKTGQSVYMHLKRHVREKVRGASGGALPKRRNSKIFLDLDTDDDLNSDDYEYEDEAKLVIFPDHYEIALPNIEELPALVTIACDAVLSSKSPYRKQDPDTWENELPVSKYANNLTQLDNGVRIPPSGWKCARCDLRENLWLNLTDGSVLCGKWFFDSSGGNGHALEHYRDMGYPLAVKLGTITPDGADVYSFQEEEPVLDPHLAKHLAHFGIDMLHMHGTENGLQDNDIKLRVSEWEVIQESGTKLKPMYGPGYTGLKNLGNSCYLSSVMQAIFSIPEFQRAYVGNLPRIFDYSPLDPTQDFNTQMTKLGHGLLSGQYSKPPVKSELIEQVMKEEHKPQQNGISPRMFKAFVSKSHPEFSSNRQQDAQEFFLHLVNLVERNRIGSENPSDVFRFLVEERIQCCQTRKVRYTERVDYLMQLPVAMEAATNKDELIAYELTRREAEANRRPLPELVRAKIPFSACLQAFSEPENVDDFWSSALQAKSAGVKTSRFASFPEYLVVQIKKFTFGLDWVPKKFDVSIDMPDLLDINHLRARGLQPGEEELPDISPPIVIPDDSKDRLMNQLIDPSDIDESSVMQLAEMGFPLEACRKAVYFTGNMGAEVAFNWIIVHMEEPDFAEPLTMPGYGGAASAGASVFGASGLDNQPPEEIVAIITSMGFQRNQAIQALRATNNNLERALDWIFSHPEFEEDSDFVIEMENNANANIISEAKPEGPRVKDGSGTYELFAFISHMGTSTMSGHYICHIKKEGRWVIYNDHKVCASERPPKDLGYMYFYRRIPS
modifications: phosphorylated on Thr196 after DNA damage (cells treated with cisplatin)
For B1, the binding (GST-MDC1-FHA domain) was “binds”.

B2: USP13 (in HEK293T lysate) (enzyme, UniProt Q92995 1-863)
chain: B1 chain
For B2, the binding [1] was “no binding”.

B3: USP13 T196A (enzyme, UniProt Q92995 1-863)
chain: B1 chain with T196A
In the case of B3, the binding (GST-MDC1-FHA domain) is reported as “no binding”.
